Reference: the supplement of paper PMC8728848
Some of the results follow.

What was measured:
Assay in all cases: glycan array binding signal (z-score within array); higher = stronger binding
Conditions in all cases: glycan notation: IUPAC condensed, linker removed
[1] = biological target: Gal(b1-4)GlcNAc(b1-3)Gal(b1-4)GlcNAc(b1-6)[Gal(b1-3)]GalNAc
Outline: (§1)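 Arrays were curated from the Consortium for Functional Glycomics database, 3228 in total, and kept only where the protein sequence was available. Binding is expressed as a within-array Z-score. This score was averaged across arrays of the same protein sequence at different concentrations or buffers and across linkers, and negative values can be read as non-binding.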

[2] = biological target: Gal(b1-4)GlcNAc(b1-3)Gal(b1-4)[Fuc(a1-3)]GlcNAc(b1-3)Gal(b1-4)[Fuc(a1-3)]GlcNAc
Outline: as §1

[3] = biological target: Gal(b1-4)GlcNAc(b1-3)GalNAc
Outline: as §1

[4] = biological target: Gal(b1-4)GlcNAc(b1-3)[Fuc(a1-3)GlcNAc(b1-6)]Gal(b1-4)Glc
Outline: as §1

[5] = biological target: Gal(b1-4)GlcNAc(b1-3)[Gal(b1-4)GlcNAc(b1-6)]Gal(b1-4)GlcNAc
Outline: as §1

[6] = biological target: Gal(b1-4)GlcNAc(b1-3)[GlcNAc(b1-6)]Gal(b1-4)GlcNAc
Outline: as §1

[7] = biological target: Gal(b1-4)GlcNAc(b1-6)Gal(b1-4)GlcNAc
Outline: as §1

[8] = biological target: Gal(b1-4)GlcNAc(b1-6)GalNAc
Outline: as §1

[9] = biological target: Gal(b1-4)GlcNAc(b1-6)[Gal(b1-3)]GalNAc
Outline: as §1

[10] = biological target: Gal(b1-4)GlcNAc(b1-6)[Gal(b1-4)GlcNAc(b1-3)]GalNAc
Outline: as §1

[11] = biological target: Gal(b1-4)GlcNAc6P
Outline: as §1

[12] = biological target: Gal(b1-6)Gal
Outline: as §1

[13] = biological target: Gal3S(b1-3)GalNAc
Outline: as §1

[14] = biological target: Gal3S(b1-3)GlcNAc
Outline: as §1

[15] = biological target: Gal3S(b1-3)[Fuc(a1-4)]GlcNAc
Outline: as §1

[16] = biological target: Gal3S(b1-4)Glc
Outline: as §1

[17] = biological target: Gal3S(b1-4)Glc6S
Outline: as §1

[18] = biological target: Gal3S(b1-4)GlcNAc
Outline: as §1

[19] = biological target: Gal3S(b1-4)[Fuc(a1-3)]Glc6S
Outline: as §1

[20] = biological target: Gal3S(b1-4)[Fuc(a1-3)]GlcNAc
Outline: as §1

[21] = biological target: Gal3S(b1-4)[Fuc(a1-3)]GlcNAc6S
Outline: as §1

[22] = biological target: Gal3S4S(b1-4)GlcNAc
Outline: as §1

[23] = biological target: Gal3S6S(b1-4)GlcNAc
Outline: as §1

[24] = biological target: Gal3S6S(b1-4)GlcNAc6S
Outline: as §1

[25] = biological target: Gal4S(b1-4)GlcNAc
Outline: as §1

[26] = biological target: Gal4S6S(b1-4)GlcNAc
Outline: as §1

[27] = biological target: Gal6P(b1-4)GlcNAc
Outline: as §1

[28] = biological target: Gal6S(b1-3)GlcNAc
Outline: as §1

[29] = biological target: Gal6S(b1-3)GlcNAc6S
Outline: as §1

[30] = biological target: Gal6S(b1-4)Glc
Outline: as §1

[31] = biological target: Gal6S(b1-4)Glc6S
Outline: as §1

[32] = biological target: Gal6S(b1-4)GlcNAc
Outline: as §1

[33] = biological target: Gal6S(b1-4)GlcNAc6S
Outline: as §1

[34] = biological target: GalNAc(a1-3)Gal
Outline: as §1

[35] = biological target: GalNAc(a1-3)GalNAc
Outline: as §1

[36] = biological target: GalNAc(a1-3)GalNAc(b1-3)Gal(a1-4)Gal(b1-4)Glc
Outline: as §1

[37] = biological target: GalNAc(a1-3)GalNAc(b1-3)Gal(a1-4)Gal(b1-4)GlcNAc
Outline: as §1

B1: his-Lectin-24A (Drosophila melanogaster) (protein)
chain: MFRLSVLVLNLLLVSHEFSAGTAKIEIQPLPALCNGYCFPTLKPVMEYVAIHQDKWNTCTEILANEARKDQIQLNIQLDALKADVSNIKASQLSKDEKLDRMEREQFAMHESLETINRYLTVKLDRTKLQLEAIKNTMDYMKAQMDGYFSAINGVQCLQPGFEKIGDRYFYIEEDVELNWLDAQAKCRRMGGHLASIKTKQEFDAIVEKLDDSKSYFLGVNENTKTGDFVSAASGKSCLYHEWGPGEPHHNNDQERCVSILRKLMHVGNCTYEKRFICQYGI
glycan array binding signal (z-score) [1]: -0.433 | glycan array binding signal (z-score) [2]: -0.754 | glycan array binding signal (z-score) [3]: -0.396 | glycan array binding signal (z-score) [4]: -0.786 | glycan array binding signal (z-score) [5]: 0.17 | glycan array binding signal (z-score) [6]: -0.386 | glycan array binding signal (z-score) [7]: -0.312 | glycan array binding signal (z-score) [8]: 0.283 | glycan array binding signal (z-score) [9]: -0.935 | glycan array binding signal (z-score) [10]: 0.403 | glycan array binding signal (z-score) [11]: 0.309 | glycan array binding signal (z-score) [12]: -2.14 | glycan array binding signal (z-score) [13]: -0.262 | glycan array binding signal (z-score) [14]: -0.89 | glycan array binding signal (z-score) [15]: -0.149 | glycan array binding signal (z-score) [16]: -1.78 | glycan array binding signal (z-score) [17]: -0.469 | glycan array binding signal (z-score) [18]: -0.467 | glycan array binding signal (z-score) [19]: 2.17 | glycan array binding signal (z-score) [20]: 0.519 | glycan array binding signal (z-score) [21]: 0.382 | glycan array binding signal (z-score) [22]: -1.57 | glycan array binding signal (z-score) [23]: 0.84 | glycan array binding signal (z-score) [24]: 0.863 | glycan array binding signal (z-score) [25]: -0.768 | glycan array binding signal (z-score) [26]: -1.63 | glycan array binding signal (z-score) [27]: 0.018 | glycan array binding signal (z-score) [28]: 2.26 | glycan array binding signal (z-score) [29]: 0.346 | glycan array binding signal (z-score) [30]: -0.962 | glycan array binding signal (z-score) [31]: -0.236 | glycan array binding signal (z-score) [32]: 0.295 | glycan array binding signal (z-score) [33]: 1.02 | glycan array binding signal (z-score) [34]: 0.977 | glycan array binding signal (z-score) [35]: 1.11 | glycan array binding signal (z-score) [36]: 1.17 | glycan array binding signal (z-score) [37]: -0.19
